{
  "source": "paper PMC10902461",
  "binders": {"B1": {"name": "Angiopoietin-like 2 (ANGPTL2), human (protein, UniProt Q9UKU9 23-493)", "chain": "QEDGFEGTEEGSPREFIYLNRYKRAGESQDKCTYTFIVPQQRVTGAICVNSKEPEVLLENRVHKQELELLNNELLKQKRQIETLQQLVEVDGGIVSEVKLLRKESRNMNSRVTQLYMQLLHEIIRKRDNALELSQLENRILNQTADMLQLASKYKDLEHKYQHLATLAHNQSEIIAQLEEHCQRVPSARPVPQPPPAAPPRVYQPPTYNRIINQISTNEIQSDQNLKVLPPPLPTMPTLTSLPSSTDKPSGPWRDCLQALEDGHDTSSIYLVKPENTNRLMQVWCDQRHDPGGWTVIQRRLDGSVNFFRNWETYKQGFGNIDGEYWLGLENIYWLTNQGNYKLLVTMEDWSGRKVFAEYASFRLEPESEYYKLRLGRYHGNAGDSFTWHNGKQFTTLDRDHDVYTGNCAHYQKGGWWYNACAHSNLNGVWYRGGHYRSRYQDGVYWAEFRGGSYSLKKVVMMIRPNPNTFH"}},
  "biological_target": "T1, NOX4 (human (endogenous in HEK293)) (UniProt Q9NPH5)",
  "T1 sequence": "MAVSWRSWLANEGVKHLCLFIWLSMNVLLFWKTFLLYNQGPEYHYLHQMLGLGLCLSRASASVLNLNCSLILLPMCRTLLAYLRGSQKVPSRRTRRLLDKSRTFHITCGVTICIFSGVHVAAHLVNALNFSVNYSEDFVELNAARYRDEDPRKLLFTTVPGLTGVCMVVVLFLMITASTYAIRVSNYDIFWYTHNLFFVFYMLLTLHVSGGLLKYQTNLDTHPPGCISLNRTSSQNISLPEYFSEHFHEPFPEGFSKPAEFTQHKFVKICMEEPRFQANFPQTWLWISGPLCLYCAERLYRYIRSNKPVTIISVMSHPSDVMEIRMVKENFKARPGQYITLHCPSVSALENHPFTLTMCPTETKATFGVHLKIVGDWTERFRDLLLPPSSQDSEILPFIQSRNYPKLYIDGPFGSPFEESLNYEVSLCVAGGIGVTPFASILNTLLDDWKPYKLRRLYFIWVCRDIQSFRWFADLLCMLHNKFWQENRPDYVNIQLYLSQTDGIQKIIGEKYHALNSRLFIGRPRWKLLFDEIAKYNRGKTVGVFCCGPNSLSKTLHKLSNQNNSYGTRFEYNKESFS",
  "assay": "co-IP; endogenous NOX4 immunoprecipitated with anti-NOX4 antibody (ab133303) cross linked to protein A magnetic beads from 0.5-1.0 mg lysate of HEK293 cells transfected with human ANGPTL2; 2 h at 4°C; lysis buffer 100 mM NaCl, 50 mM Tris pH 7.5, 50 mM NaF, 1% NP-40; three washes; immunoblot",
  "note": "Results are given in words; binding and its absence hold for the method and conditions named. In cells and extracts the contact can be indirect. Some results given as binding are weak or reduced against the parent protein; the word gives no strength.",
  "data": [
    {"binder": "B1", "values": [
      {"measurement": "binding", "result": "binds"}
    ]}
  ]
}
